Structures are written as SMILES. Hit rate of the full screen: of about 2,200 compounds, about 15 (0.7%) were called active.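 Rule for the calls: active = fitted half-maximal concentration for loss of luminescence signal no more than a set limit of log units above the top tested concentration; inconclusive = flat fit with 30 to 70% signal loss, or invalid fit; inactive = half-maximal concentration above that set limit.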 This is one part of the list.

The test in a line: inhibitors of ADP-Glo detection reagents, dose response, artefact control for GSK3beta inhibitor project, biochemical, luminescence, cell-free, homogeneous (AID 434947). The conditions noted are these: 5 uM ADP.
One may read the EC50 as the concentration giving half of the maximal effect. Take `COC(=O)c1ccccc1Nc1ccnc(Cl)n1`: the EC50 was inactive: > 30 µM.
As for `O=C1NC(=S)S/C1=C/c1ccc(N2CCOCC2)o1`, the figure is inactive: > 30 µM; as for `C=CCC1(CC=C)CCCN1C(=O)C1CCC(=O)N(CCc2ccc(OC)cc2)C1` (stereo not given), inactive: > 30 µM; as for `Cc1ccnc(NC(=O)Cc2ccc([N+](=O)[O-])cc2)c1`, inactive: > 30 µM.
As for `COCCNc1nc(N)c([N+](=O)[O-])c(NC2CCCCC2)n1`, the figure is inactive: > 30 µM; as for `COc1ccc(Cl)cc1-c1nc(N)nc(N(C)C)n1`, inactive: > 30 µM.
As for `COc1cccc(-n2sc3c(c2=S)-c2cc(OC)ccc2NC3(C)C)c1`, the EC50 was inactive: > 30 µM.
Take `Cc1ccc(NS(=O)(=O)c2cccc(C(=O)N/N=C/c3c(C)nn(-c4ccccc4)c3N3CCCC3)c2)c(C)c1`: the EC50 was inactive: > 30 µM.
For `CSc1nnnn1-c1c(C)cccc1C`, the EC50 was inactive: > 30 µM.
In the case of `NS(=O)(=O)c1ccc(N2CCCCCC2)c([N+](=O)[O-])c1`, the EC50 was inactive: > 30 µM.
Take `CCCc1nc2c([nH]1)c(=O)n(C)c(=O)n2C`: the EC50 is inactive: > 30 µM.
For the compound `O=C(COc1ccccc1[N+](=O)[O-])N/N=C/c1ccccn1`, the EC50 was inactive: > 30 µM.
Regarding `Cc1onc(-c2ccccc2Cl)c1C(=O)NNC(=O)c1ccc(F)cc1`, the EC50 was inactive: > 30 µM.
Regarding `Cc1noc2c1C(c1ccc(N(C)C)cc1)C1=C(CC(C)(C)CC1=O)N2` (stereo not given), the EC50 is inactive: > 30 µM.
As to `CCCCCCCCCCCCC(=O)CCCCC(=O)O`, the EC50 was inactive: > 30 µM.
With `CCOC(=O)c1cnc2ccc(OC)cc2c1NCCN1CCOCC1`, the EC50 was inactive: > 30 µM.
For the compound `CCCc1cc(NCc2ccccn2)n2nc(C)c(-c3ccccc3)c2n1`, the EC50 is inactive: > 30 µM.
On to `CC(C)Cn1nc(NC(=O)C(C)(C)C)c2cc3ccccc3nc21`, for which the EC50 was inactive: > 30 µM.
Consider `N#Cc1ccccc1CSc1nnc(-c2ccncc2)o1`, for which the EC50 was inactive: > 30 µM.
On to `CC1CN(C(=O)CCc2cc(C(C)(C)C)c(O)c(C(C)(C)C)c2)CC(C)O1` (stereo not given), for which the EC50 was inactive: > 30 µM.
Turning to `c1ccc(CSc2nnc(-c3ccncc3)o2)cc1`, the EC50 was inactive: > 30 µM.
Turning to `O=[N+]([O-])c1cc(/C=N\O)ccc1Oc1ccc(F)cc1`, the EC50 was inactive: > 30 µM.
With `c1ccc(CCCNCC2COc3ccccc3O2)cc1` (stereo not given), the EC50 is inactive: > 30 µM.
As to `Nc1nonc1-n1nnc(C(=O)N/N=C/c2ccoc2)c1CSc1ccccc1`, the EC50 is inactive: > 30 µM.
As for `O=C(NCC(c1ccco1)N1CCN(c2ccc(F)cc2)CC1)c1cccs1` (stereo not given), the figure is inactive: > 30 µM; as for `FC(F)(F)c1ccc(CSc2nccn2-c2ccccc2)cc1`, inactive: > 30 µM.
Consider `COc1ccc2occ(C(=O)c3coc4ccc(O)c(CN(C)C)c34)c2c1`, for which the EC50 is inactive: > 30 µM.
As for `COCCn1c(SCC(=O)NCc2ccc(F)cc2)nc2ccccc21`, the figure is inactive: > 30 µM; as for `CCOC(=O)c1nnn(-c2nonc2N)c1CSc1ccc(C)cc1`, inactive: > 30 µM.
In the case of `O=C1N/C(=N/Nc2ccccc2)S/C1=C\c1ccccc1`, the EC50 was inactive: > 30 µM.
As for `CC(=O)NC(=S)Nc1ccccc1N1CCCCC1`, the EC50 was inactive: > 30 µM.
Consider `CC(=O)COc1cc(C)cc2oc(=O)cc(-c3ccccc3)c12`, for which the EC50 is inactive: > 30 µM.
As for `CCc1nnc(NC(=O)c2cccc(OC)c2)s1`, the figure is inactive: > 30 µM; as for `O=C(COC(=O)c1cc(=O)c2ccccc2o1)NC1CCCC1`, inactive: > 30 µM.
For `Cc1cccc(Nc2ccccc2C(=O)O)c1C`, the EC50 is inactive: > 30 µM.
For `CNC(=O)NC(=O)CSc1nc(-c2cccs2)c(C#N)c(=O)[nH]1`, the EC50 was inactive: > 30 µM.
As for `CC(C)c1ccc(C(=O)NCCCN2CCN(CCCNC(=O)c3ccc(C(C)C)cc3)CC2)cc1`, the EC50 is inactive: > 30 µM.
In the case of `CCOC(=O)C1=C(C)Nc2ncnn2C1c1ccc(N(C)C)cc1` (stereo not given), the EC50 is inactive: > 30 µM.
`CN(C)S(=O)(=O)c1cc(NC(=O)CN2CCN(c3ccc(O)cc3)CC2)ccc1Cl`: the EC50 is inactive: > 30 µM.
Take `CCc1nn(CC(=O)NCCN2CCN(C)CC2)c(=O)c2cc3c(OC)cccc3n12`: the EC50 was inactive: > 30 µM.
As for `C=CCNC(=O)c1ccc(OC)cc1OC`, the figure is inactive: > 30 µM; as for `O=C(O)COc1ccc(C(=O)c2ccccc2)cc1`, inactive: > 30 µM.
With `Cc1ccccc1NC(=O)Nc1ccccn1`, the EC50 is inactive: > 30 µM.
Regarding `Cc1nn(Cc2ccc(Cl)c(Cl)c2)c(C)c1NC(=O)c1noc2c1CCCCC2`, the EC50 is inactive: > 30 µM.
Turning to `O=C1NC(=NCc2ccccc2)S/C1=C\c1ccccc1`, the EC50 is inactive: > 30 µM.
Turning to `CCOC(=O)COC(=O)c1ccc(O)cc1`, the EC50 was inactive: > 30 µM.
For `COc1ccc(/C(C)=N/NC(=O)CNC(=O)Cc2ccccc2)c(OC)c1`, the EC50 is inactive: > 30 µM.
Regarding `Cc1cccc(NC(=O)CSc2nc(-c3ccccc3)c(C#N)c(=O)[nH]2)c1C`, the EC50 is inactive: > 30 µM.
Under `Cn1c(SCc2ccccc2C#N)nnc1-c1ccncc1` stands inactive: > 30 µM; under `Cc1c(C=Nc2ccc(S(=O)(=O)CCO)cc2)c(O)[nH]c(=O)c1C#N`, inactive: > 30 µM.
As for `CCCn1nc(NC(=O)CC(C)C)c2cc3ccccc3nc21`, the figure is inactive: > 30 µM.
As to `COC(=O)C1=C(C)N(CCc2cc(OC)c(OC)c(OC)c2)C(=O)N[C@H]1c1ccccc1`, the EC50 is inactive: > 30 µM.
Regarding `CCOC(=O)c1nnn(-c2nonc2N)c1CN1CCc2ccccc2C1`, the EC50 is inactive: > 30 µM.
As for `Cc1ccnc(NC(=O)CCC(=O)N(CC(=O)NCc2ccccc2)Cc2cccs2)c1`, the figure is inactive: > 30 µM; as for `COc1ccc(C)cc1S(=O)(=O)Nc1cc2c3c(c1)CCN3C(=O)CC2`, inactive: > 30 µM.
Regarding `COc1ccc(C2C3=C(CC(C)(C)CC3=O)Nc3n[nH]c(C)c32)cc1` (stereo not given), the EC50 is inactive: > 30 µM.
Take `NC(=O)CN(c1ccc([N+](=O)[O-])cc1)S(=O)(=O)c1ccccc1`: the EC50 is inactive: > 30 µM.
Turning to `CCOC(=O)COn1c(=O)c(-c2cccs2)[n+]([O-])c2ccccc21`, the EC50 was inactive: > 30 µM.
Turning to `Nc1nc(NCc2ccccc2)nc(NCCO)c1[N+](=O)[O-]`, the EC50 is inactive: > 30 µM.
Take `Cc1ccc2c(c1)Oc1ccc([N+](=O)[O-])cc1C(=O)N2`: the EC50 was inactive: > 30 µM.

The values are drawn from PubChem BioAssay AID434947 (Broad Institute, 2010).
